# Assay results published in the supplement of paper PMC3334620.
# Over roughly 33,000 sequences, “E-score (-0.5 to 0.5)” has its median near -0.016; the highest 2% begin near 0.3. Some of the results follow.
# Biological target: T1, Yer184c (UniProt P39961)
# T1 sequence: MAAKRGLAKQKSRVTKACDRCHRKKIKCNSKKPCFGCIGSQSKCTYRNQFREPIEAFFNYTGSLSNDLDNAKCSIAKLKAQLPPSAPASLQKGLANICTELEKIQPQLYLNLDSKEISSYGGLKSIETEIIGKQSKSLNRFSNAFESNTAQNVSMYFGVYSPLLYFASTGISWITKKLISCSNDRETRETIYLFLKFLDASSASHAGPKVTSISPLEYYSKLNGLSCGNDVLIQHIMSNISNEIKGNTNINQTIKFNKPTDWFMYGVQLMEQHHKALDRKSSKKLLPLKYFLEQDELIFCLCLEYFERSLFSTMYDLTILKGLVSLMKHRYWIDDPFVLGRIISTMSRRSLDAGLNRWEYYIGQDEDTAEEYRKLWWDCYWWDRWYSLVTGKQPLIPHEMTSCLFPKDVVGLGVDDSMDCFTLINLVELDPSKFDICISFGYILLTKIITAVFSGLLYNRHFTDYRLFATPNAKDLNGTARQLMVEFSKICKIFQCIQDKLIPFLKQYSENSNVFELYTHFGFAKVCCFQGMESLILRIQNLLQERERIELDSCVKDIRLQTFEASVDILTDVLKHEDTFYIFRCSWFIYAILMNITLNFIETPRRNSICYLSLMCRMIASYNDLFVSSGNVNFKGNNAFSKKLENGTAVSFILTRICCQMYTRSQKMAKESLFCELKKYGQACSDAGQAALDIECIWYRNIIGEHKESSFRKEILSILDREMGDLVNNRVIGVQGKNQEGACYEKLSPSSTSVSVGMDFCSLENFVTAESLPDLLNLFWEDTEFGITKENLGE
# Experiment: PBM E-score (8-mer binding enrichment) (E-score (-0.5 to 0.5)); higher = stronger / more preferred TF binding
# Details: protein concentration: 100 nM; construct: GST-full length
# How it was run: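 Universal all-10-mer Agilent arrays, double-stranded by primer extension on fresh or once-stripped slides, were probed with about 100-200 nM GST-tagged yeast transcription factors made by PURExpress. Fluorescent anti-GST detected bound protein, and masliner normalised the scans. E-scores from the Universal PBM Analysis Suite were given to each ungapped eight-base word pooled with its reverse complement.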
row,Sequence,PBM E-score
1,GAAGTCGC,-0.0769
2,CCACGGAA,0.338
3,CTTCATAA,0.164
4,CCACTAGG,-0.305
5,AATACCGC,0.0781
6,ACTTCCAT,0.0934
7,GGGTCCTA,-0.229
8,CATTGACC,-0.0148
9,CGACAACA,0.114
10,ATTTTCCA,0.178
11,GGTCGCAC,-0.076
12,TGATATAA,-0.0658
13,ATCCCCTG,-0.312
14,ACTGCTTG,-0.0732
15,ACTACAGA,0.168
16,CGTCAGTA,-0.0724
17,AAAACGAG,0.0101
18,GAGGGAGC,-0.277
19,CCGGCGAG,0.285
20,AGGTTTAA,0.102
21,ATTCAGTG,0.0284
22,AGACTATC,-0.0355
23,TAGGGAGA,-0.0689
24,AGGCGTGC,-0.116

row,Sequence,PBM E-score
1,AGCGCACG,-0.0806
2,ACAGTAGG,-0.179
3,ATCGCGCA,-0.117
4,GAACACAA,-0.0174
5,GTCATCAC,-0.256
6,GCCTCTCC,-0.195
7,AATATTAG,0.0179
8,ATGCTGAA,-0.016
9,AAGCCATC,0.0823
10,ATTAGTTA,0.222
11,CAGCCGAC,0.0296
12,TCCTTAGA,-0.109
13,CACGTCCA,-0.284
14,AGACCTGA,0.0577
15,AAACAGAA,0.113
16,CCTCACTA,-0.0343
17,ATCGGCCC,0.113
18,TATTAGGA,0.0723
19,CGGCGTAA,0.239
20,CTCATACA,-0.0372
21,AATTCCAA,0.116
22,CTTCCAGA,-0.111
23,AGGATCCC,-0.0989
24,GCTCCTAA,-0.223

row,Sequence,PBM E-score
1,GGGATAAA,0.195
2,ACACGCAG,-0.174
3,GGTCAAAC,0.122
4,CCCTCGCA,-0.13
5,GCTCAGAA,-0.00346
6,GTCGGAAC,0.217
7,GCAACTGA,0.0317
8,ACTTTAAG,0.0617
9,CCTTTTGC,-0.0697
10,ACGCCTGC,-0.225
11,GCATCCGC,-0.113
12,AGGCCTTC,-0.0978
13,CGACCTTC,0.0407
14,ACCTGAGT,-0.015
15,AGATACAG,0.0838
16,GATCTCGA,0.115
17,ACTGGCAG,-0.0376
18,GCATGTGA,-0.00717
19,GACATGCA,-0.147
20,ATGGGTCG,-0.091
21,GTCGCATA,0.029
22,CGACAGCA,-0.122
23,AACTGACG,-0.19
24,CCGTTCGC,0.0549

row,Sequence,PBM E-score
1,CCGCAGCC,-0.112
2,AGTTGAAG,-0.101
3,CACATAAC,-0.0415
4,ACACCCTA,-0.148
5,AAGCAACC,-0.0853
6,GGTTACTA,-0.0923
7,AACACATC,0.0583
8,ATCCGACG,0.155
9,AGAGCGCT,-0.202
10,GGACGGTA,0.0645
11,AGGACGAT,-0.101
12,AGGAACCG,0.179
13,CACGCGAC,-0.154
14,CGCGCATA,-0.208
15,ATCGGAAT,0.379
16,CCTCTGGA,-0.128
17,ACATAAGG,0.0838
18,GCCTGTCA,-0.166
19,CCGCACGC,-0.0986
20,ACCTTACA,-0.108
21,CCCTTGTC,-0.0796
22,ATAGTGCC,-0.0149

# In a second layout: results already given
row	Sequence	PBM E-score
18	GCATGTGA	-0.00717
19	GACATGCA	-0.147
20	ATGGGTCG	-0.091
22	CGACAGCA	-0.122
23	AACTGACG	-0.19
24	CCGTTCGC	0.0549
1	CCGCAGCC	-0.112
2	AGTTGAAG	-0.101
3	CACATAAC	-0.0415
4	ACACCCTA	-0.148
5	AAGCAACC	-0.0853
6	GGTTACTA	-0.0923
7	AACACATC	0.0583
8	ATCCGACG	0.155
9	AGAGCGCT	-0.202
10	GGACGGTA	0.0645
11	AGGACGAT	-0.101
12	AGGAACCG	0.179
13	CACGCGAC	-0.154
16	CCTCTGGA	-0.128
17	ACATAAGG	0.0838
18	GCCTGTCA	-0.166
19	CCGCACGC	-0.0986
20	ACCTTACA	-0.108
21	CCCTTGTC	-0.0796
22	ATAGTGCC	-0.0149
